Publication doi:10.1101/351056
Read-outs that look alike come from different tables or passages of the source. Results are given in words; binding and its absence hold for the method and conditions named. For part of these data: Binding seen in cells or lysates may run through a third protein. Some binding calls cover weakened binding; strength is not graded here. For part of these data: Sequences can lack the tags named with a protein.

Sequences of proteins named here, by UniProt entry; tags and fusion partners are left off. Residues count along the entry.
UniProt Q944A7: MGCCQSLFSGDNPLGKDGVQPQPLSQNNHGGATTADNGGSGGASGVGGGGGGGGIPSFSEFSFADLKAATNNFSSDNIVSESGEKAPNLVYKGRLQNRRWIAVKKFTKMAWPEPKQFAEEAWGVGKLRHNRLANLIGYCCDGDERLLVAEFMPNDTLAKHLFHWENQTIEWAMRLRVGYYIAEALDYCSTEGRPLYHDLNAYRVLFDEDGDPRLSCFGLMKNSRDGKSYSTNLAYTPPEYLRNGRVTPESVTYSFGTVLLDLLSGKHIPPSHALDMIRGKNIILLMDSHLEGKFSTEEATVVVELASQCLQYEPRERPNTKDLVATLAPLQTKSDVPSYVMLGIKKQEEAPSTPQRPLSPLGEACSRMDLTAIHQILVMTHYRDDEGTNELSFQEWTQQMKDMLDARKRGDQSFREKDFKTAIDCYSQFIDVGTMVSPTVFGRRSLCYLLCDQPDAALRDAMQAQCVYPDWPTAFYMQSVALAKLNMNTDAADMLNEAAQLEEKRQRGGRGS
UniProt Q8S307: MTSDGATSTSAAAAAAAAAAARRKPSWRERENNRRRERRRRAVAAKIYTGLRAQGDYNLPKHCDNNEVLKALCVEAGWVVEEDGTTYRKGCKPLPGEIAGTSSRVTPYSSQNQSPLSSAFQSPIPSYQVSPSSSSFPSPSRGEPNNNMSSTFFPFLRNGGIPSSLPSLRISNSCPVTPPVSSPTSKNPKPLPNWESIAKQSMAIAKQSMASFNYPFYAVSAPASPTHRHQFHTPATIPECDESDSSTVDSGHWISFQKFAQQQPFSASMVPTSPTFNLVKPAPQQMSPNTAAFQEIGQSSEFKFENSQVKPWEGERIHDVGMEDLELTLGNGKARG
UniProt O22476, residues 24-1196: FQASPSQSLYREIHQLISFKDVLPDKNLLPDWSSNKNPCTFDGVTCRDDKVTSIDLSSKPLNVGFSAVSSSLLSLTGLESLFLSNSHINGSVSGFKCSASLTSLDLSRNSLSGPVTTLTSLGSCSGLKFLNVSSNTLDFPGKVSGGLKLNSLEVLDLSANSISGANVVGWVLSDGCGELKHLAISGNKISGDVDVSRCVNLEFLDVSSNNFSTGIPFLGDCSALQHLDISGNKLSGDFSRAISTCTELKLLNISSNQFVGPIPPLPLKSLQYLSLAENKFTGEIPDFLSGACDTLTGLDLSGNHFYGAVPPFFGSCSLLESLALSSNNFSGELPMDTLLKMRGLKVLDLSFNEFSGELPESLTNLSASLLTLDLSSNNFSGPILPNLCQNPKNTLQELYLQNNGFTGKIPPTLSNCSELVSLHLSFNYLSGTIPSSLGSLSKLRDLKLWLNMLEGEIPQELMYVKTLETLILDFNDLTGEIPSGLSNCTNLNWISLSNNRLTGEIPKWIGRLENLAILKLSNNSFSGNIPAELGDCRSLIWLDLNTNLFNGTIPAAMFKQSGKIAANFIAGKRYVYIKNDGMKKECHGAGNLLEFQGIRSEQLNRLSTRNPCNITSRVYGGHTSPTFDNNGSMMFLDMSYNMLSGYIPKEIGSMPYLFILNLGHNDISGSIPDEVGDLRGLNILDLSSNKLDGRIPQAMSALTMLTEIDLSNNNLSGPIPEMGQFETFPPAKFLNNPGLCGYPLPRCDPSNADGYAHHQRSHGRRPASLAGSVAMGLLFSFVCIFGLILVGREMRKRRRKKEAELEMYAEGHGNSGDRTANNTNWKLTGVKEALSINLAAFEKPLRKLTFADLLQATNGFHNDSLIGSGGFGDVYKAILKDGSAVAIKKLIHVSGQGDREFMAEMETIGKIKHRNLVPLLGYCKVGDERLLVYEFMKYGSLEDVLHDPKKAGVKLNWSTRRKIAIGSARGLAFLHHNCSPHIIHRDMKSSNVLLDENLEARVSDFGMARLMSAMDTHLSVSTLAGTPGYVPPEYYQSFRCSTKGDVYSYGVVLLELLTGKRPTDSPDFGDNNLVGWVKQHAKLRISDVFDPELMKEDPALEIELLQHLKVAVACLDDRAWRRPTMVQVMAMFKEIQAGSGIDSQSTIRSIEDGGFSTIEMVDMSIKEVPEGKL
UniProt Q9LR78: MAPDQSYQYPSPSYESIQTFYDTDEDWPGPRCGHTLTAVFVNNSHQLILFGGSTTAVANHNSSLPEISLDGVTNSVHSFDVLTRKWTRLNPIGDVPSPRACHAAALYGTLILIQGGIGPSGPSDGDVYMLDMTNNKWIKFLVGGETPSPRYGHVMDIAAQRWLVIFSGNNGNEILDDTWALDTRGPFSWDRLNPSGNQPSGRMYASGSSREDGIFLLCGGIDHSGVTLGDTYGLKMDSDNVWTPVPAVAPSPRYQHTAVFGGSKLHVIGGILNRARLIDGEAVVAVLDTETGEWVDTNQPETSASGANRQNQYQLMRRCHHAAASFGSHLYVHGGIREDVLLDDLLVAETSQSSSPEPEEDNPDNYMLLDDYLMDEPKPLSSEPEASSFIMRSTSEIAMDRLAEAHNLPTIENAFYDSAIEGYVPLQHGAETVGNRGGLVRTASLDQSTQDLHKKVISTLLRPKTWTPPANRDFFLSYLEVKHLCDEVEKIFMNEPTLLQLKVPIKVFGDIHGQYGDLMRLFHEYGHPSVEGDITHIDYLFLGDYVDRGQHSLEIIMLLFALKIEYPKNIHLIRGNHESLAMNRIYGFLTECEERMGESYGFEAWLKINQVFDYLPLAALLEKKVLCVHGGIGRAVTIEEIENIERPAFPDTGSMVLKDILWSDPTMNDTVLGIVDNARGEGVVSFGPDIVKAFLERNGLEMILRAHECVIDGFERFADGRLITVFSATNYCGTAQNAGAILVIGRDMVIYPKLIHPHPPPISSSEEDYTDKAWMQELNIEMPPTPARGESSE

Experiments:
[1] = target: BSK1-nYFP (Arabidopsis thaliana) (UniProt Q944A7); test: split reporter
[2] = target: T1, TTL3-nYFP (Arabidopsis thaliana) (UniProt Q9SIN1); test: split reporter
T1 sequence: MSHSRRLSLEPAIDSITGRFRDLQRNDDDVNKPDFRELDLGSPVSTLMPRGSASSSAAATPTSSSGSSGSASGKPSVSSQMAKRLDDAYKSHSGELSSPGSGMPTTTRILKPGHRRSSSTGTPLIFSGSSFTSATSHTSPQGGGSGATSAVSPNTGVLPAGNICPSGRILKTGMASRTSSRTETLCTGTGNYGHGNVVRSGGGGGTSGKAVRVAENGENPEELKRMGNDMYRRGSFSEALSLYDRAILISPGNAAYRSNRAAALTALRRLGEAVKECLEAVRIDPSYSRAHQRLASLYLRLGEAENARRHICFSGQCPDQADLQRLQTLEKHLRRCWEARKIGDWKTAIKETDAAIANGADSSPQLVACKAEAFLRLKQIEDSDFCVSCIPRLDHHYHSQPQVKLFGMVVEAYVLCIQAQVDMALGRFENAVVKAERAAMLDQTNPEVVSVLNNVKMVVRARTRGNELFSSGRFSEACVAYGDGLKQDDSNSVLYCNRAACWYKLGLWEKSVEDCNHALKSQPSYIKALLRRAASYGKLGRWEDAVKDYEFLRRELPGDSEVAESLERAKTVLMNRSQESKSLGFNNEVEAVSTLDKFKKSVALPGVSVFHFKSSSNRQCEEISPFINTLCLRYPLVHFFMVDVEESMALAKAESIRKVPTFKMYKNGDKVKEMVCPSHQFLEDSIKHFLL

[3] = target: T2, TTL3-cYFP (Arabidopsis thaliana) (UniProt Q9SIN1); test: split reporter
T2 sequence: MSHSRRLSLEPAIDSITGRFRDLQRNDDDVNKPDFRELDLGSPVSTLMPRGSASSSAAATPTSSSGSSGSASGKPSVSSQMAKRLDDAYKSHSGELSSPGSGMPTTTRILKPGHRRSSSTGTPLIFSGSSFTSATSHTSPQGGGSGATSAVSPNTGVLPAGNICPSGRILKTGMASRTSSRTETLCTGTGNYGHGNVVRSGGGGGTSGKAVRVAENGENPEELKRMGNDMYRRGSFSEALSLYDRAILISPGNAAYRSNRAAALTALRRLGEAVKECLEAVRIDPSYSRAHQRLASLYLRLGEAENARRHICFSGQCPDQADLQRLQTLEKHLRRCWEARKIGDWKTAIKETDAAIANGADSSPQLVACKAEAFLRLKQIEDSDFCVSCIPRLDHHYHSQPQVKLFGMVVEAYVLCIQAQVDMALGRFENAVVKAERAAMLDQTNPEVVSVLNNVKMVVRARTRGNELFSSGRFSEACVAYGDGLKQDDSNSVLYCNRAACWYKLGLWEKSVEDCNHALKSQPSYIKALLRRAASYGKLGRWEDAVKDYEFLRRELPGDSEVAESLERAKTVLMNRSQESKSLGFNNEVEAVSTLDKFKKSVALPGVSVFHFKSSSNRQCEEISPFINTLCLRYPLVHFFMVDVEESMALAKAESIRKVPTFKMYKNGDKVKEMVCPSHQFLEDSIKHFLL

[4] = target: BZR1-GFP (Arabidopsis thaliana) (UniProt Q8S307); test: co-IP
[5] = target: T3, GFP-TTL3 full length (Arabidopsis thaliana) (UniProt Q9SIN1); test: co-IP
T3 sequence: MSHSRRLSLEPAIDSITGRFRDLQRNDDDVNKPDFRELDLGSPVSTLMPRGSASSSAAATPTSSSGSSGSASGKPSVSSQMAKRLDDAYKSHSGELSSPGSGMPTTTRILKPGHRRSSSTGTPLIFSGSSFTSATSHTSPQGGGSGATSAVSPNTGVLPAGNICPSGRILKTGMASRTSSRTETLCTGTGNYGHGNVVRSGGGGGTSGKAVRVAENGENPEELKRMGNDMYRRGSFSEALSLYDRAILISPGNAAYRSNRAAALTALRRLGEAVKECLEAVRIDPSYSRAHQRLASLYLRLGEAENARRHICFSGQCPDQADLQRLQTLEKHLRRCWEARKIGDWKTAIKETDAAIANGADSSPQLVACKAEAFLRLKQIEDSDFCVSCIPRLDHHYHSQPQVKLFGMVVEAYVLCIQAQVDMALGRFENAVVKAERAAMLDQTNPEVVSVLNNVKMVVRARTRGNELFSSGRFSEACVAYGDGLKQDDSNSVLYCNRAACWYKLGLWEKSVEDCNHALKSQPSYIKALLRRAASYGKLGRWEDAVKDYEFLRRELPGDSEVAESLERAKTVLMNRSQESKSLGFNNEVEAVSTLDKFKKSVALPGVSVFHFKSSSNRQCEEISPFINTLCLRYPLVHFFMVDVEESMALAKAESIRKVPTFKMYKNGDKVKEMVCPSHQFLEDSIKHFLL

[6] = target: T4, TTL3-GFP (N. benthamiana) (Arabidopsis thaliana) (UniProt Q9SIN1); test: co-IP
T4 sequence: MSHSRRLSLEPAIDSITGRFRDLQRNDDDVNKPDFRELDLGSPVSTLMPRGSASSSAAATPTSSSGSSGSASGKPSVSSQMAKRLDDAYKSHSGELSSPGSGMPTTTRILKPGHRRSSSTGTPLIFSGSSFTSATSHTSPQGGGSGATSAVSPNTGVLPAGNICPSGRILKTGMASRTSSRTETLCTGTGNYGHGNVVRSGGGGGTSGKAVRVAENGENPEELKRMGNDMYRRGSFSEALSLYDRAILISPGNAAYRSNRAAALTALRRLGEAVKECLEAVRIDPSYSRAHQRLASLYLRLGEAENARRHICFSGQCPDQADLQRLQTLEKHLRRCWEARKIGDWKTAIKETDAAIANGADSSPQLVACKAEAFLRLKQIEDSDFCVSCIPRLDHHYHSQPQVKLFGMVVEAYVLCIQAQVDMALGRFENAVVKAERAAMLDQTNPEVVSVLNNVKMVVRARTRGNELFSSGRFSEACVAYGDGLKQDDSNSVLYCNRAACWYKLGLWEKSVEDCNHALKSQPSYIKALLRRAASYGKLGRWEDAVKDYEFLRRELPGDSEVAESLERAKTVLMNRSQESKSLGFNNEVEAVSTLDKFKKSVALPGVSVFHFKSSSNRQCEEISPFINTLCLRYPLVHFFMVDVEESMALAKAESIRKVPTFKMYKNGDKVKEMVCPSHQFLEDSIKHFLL

[7] = target: BRI1-GFP (Arabidopsis thaliana) (UniProt O22476); test: co-IP
[8] = target: BD-BZR1 (Arabidopsis thaliana) (UniProt Q8S307); test: two-hybrid
[9] = target: T4, TTL3-GFP (N. benthamiana) (Arabidopsis thaliana); test: co-IP; remark: listed apart in the source

For “BRI1-cYFP (from UniProt O22476 24-1196) (receptor)”, the binding [1] was “binds” and the binding [2] was “binds”.

With “BRI1-nYFP (from UniProt O22476 24-1196) (receptor)” the binding [3] was “binds”.

With “BSK1-HA (from UniProt Q944A7 1-512) (enzyme)” the binding [4] was “binds” and the binding [5] was “binds”.

With “BSK1-cYFP (from UniProt Q944A7 1-512) (enzyme)” the binding [2] was “binds”.

With “BSK1-nYFP (from UniProt Q944A7 1-512) (enzyme)” the binding [3] was “binds”.

For “BSU1-HA (from UniProt Q9LR78 1-793) (enzyme)”, the binding [5] was “binds” and the binding [6] was “binds”.

With “BSU1-cYFP (from UniProt Q9LR78 1-793) (enzyme)” the binding [1] was “binds” and the binding [2] was “binds”.

In the case of “BSU1-nYFP (from UniProt Q9LR78 1-793) (enzyme)”, the binding [3] is reported as “binds”.

BZR1-cYFP (from UniProt Q8S307 1-336) was tested, and the binding [1] was “binds weakly”.

B1: TTL3-HA (protein, UniProt Q9SIN1 1-691)
chain: MSHSRRLSLEPAIDSITGRFRDLQRNDDDVNKPDFRELDLGSPVSTLMPRGSASSSAAATPTSSSGSSGSASGKPSVSSQMAKRLDDAYKSHSGELSSPGSGMPTTTRILKPGHRRSSSTGTPLIFSGSSFTSATSHTSPQGGGSGATSAVSPNTGVLPAGNICPSGRILKTGMASRTSSRTETLCTGTGNYGHGNVVRSGGGGGTSGKAVRVAENGENPEELKRMGNDMYRRGSFSEALSLYDRAILISPGNAAYRSNRAAALTALRRLGEAVKECLEAVRIDPSYSRAHQRLASLYLRLGEAENARRHICFSGQCPDQADLQRLQTLEKHLRRCWEARKIGDWKTAIKETDAAIANGADSSPQLVACKAEAFLRLKQIEDSDFCVSCIPRLDHHYHSQPQVKLFGMVVEAYVLCIQAQVDMALGRFENAVVKAERAAMLDQTNPEVVSVLNNVKMVVRARTRGNELFSSGRFSEACVAYGDGLKQDDSNSVLYCNRAACWYKLGLWEKSVEDCNHALKSQPSYIKALLRRAASYGKLGRWEDAVKDYEFLRRELPGDSEVAESLERAKTVLMNRSQESKSLGFNNEVEAVSTLDKFKKSVALPGVSVFHFKSSSNRQCEEISPFINTLCLRYPLVHFFMVDVEESMALAKAESIRKVPTFKMYKNGDKVKEMVCPSHQFLEDSIKHFLL
B1 was tested, and the binding [7] was “binds”.

B2: TTL3ΔN1 (yeast two-hybrid fusion) (domain or fragment, UniProt Q9SIN1 204-691)
chain: GGTSGKAVRVAENGENPEELKRMGNDMYRRGSFSEALSLYDRAILISPGNAAYRSNRAAALTALRRLGEAVKECLEAVRIDPSYSRAHQRLASLYLRLGEAENARRHICFSGQCPDQADLQRLQTLEKHLRRCWEARKIGDWKTAIKETDAAIANGADSSPQLVACKAEAFLRLKQIEDSDFCVSCIPRLDHHYHSQPQVKLFGMVVEAYVLCIQAQVDMALGRFENAVVKAERAAMLDQTNPEVVSVLNNVKMVVRARTRGNELFSSGRFSEACVAYGDGLKQDDSNSVLYCNRAACWYKLGLWEKSVEDCNHALKSQPSYIKALLRRAASYGKLGRWEDAVKDYEFLRRELPGDSEVAESLERAKTVLMNRSQESKSLGFNNEVEAVSTLDKFKKSVALPGVSVFHFKSSSNRQCEEISPFINTLCLRYPLVHFFMVDVEESMALAKAESIRKVPTFKMYKNGDKVKEMVCPSHQFLEDSIKHFLL
In the case of B2, the binding [8] is reported as “binds”.

B3: TTL3ΔN2 (yeast two-hybrid fusion) (domain or fragment, UniProt Q9SIN1 371-691)
chain: AEAFLRLKQIEDSDFCVSCIPRLDHHYHSQPQVKLFGMVVEAYVLCIQAQVDMALGRFENAVVKAERAAMLDQTNPEVVSVLNNVKMVVRARTRGNELFSSGRFSEACVAYGDGLKQDDSNSVLYCNRAACWYKLGLWEKSVEDCNHALKSQPSYIKALLRRAASYGKLGRWEDAVKDYEFLRRELPGDSEVAESLERAKTVLMNRSQESKSLGFNNEVEAVSTLDKFKKSVALPGVSVFHFKSSSNRQCEEISPFINTLCLRYPLVHFFMVDVEESMALAKAESIRKVPTFKMYKNGDKVKEMVCPSHQFLEDSIKHFLL
For B3, the binding [8] was “binds”.

B4: BAK1 (co-IP construct) (receptor, UniProt Q94F62 26-615)
chain: NAEGDALSALKNSLADPNKVLQSWDATLVTPCTWFHVTCNSDNSVTRVDLGNANLSGQLVMQLGQLPNLQYLELYSNNITGTIPEQLGNLTELVSLDLYLNNLSGPIPSTLGRLKKLRFLRLNNNSLSGEIPRSLTAVLTLQVLDLSNNPLTGDIPVNGSFSLFTPISFANTKLTPLPASPPPPISPTPPSPAGSNRITGAIAGGVAAGAALLFAVPAIALAWWRRKKPQDHFFDVPAEEDPEVHLGQLKRFSLRELQVASDNFSNKNILGRGGFGKVYKGRLADGTLVAVKRLKEERTQGGELQFQTEVEMISMAVHRNLLRLRGFCMTPTERLLVYPYMANGSVASCLRERPESQPPLDWPKRQRIALGSARGLAYLHDHCDPKIIHRDVKAANILLDEEFEAVVGDFGLAKLMDYKDTHVTTAVRGTIGHIAPEYLSTGKSSEKTDVFGYGVMLLELITGQRAFDLARLANDDDVMLLDWVKGLLKEKKLEALVDVDLQGNYKDEEVEQLIQVALLCTQSSPMERPKMSEVVRMLEGDGLAERWEEWQKEEMFRQDFNYPTHHPAVSGWIIGDSTSQIENEYPSGPR
B4 was tested, and the binding [9] was “no binding”.

B5: BAK1*-DK (dead kinase D416N) (receptor, UniProt Q94F62 26-615)
chain: NAEGDALSALKNSLADPNKVLQSWDATLVTPCTWFHVTCNSDNSVTRVDLGNANLSGQLVMQLGQLPNLQYLELYSNNITGTIPEQLGNLTELVSLDLYLNNLSGPIPSTLGRLKKLRFLRLNNNSLSGEIPRSLTAVLTLQVLDLSNNPLTGDIPVNGSFSLFTPISFANTKLTPLPASPPPPISPTPPSPAGSNRITGAIAGGVAAGAALLFAVPAIALAWWRRKKPQDHFFDVPAEEDPEVHLGQLKRFSLRELQVASDNFSNKNILGRGGFGKVYKGRLADGTLVAVKRLKEERTQGGELQFQTEVEMISMAVHRNLLRLRGFCMTPTERLLVYPYMANGSVASCLRERPESQPPLDWPKRQRIALGSARGLAYLHDHCDPKIIHRNVKAANILLDEEFEAVVGDFGLAKLMDYKDTHVTTAVRGTIGHIAPEYLSTGKSSEKTDVFGYGVMLLELITGQRAFDLARLANDDDVMLLDWVKGLLKEKKLEALVDVDLQGNYKDEEVEQLIQVALLCTQSSPMERPKMSEVVRMLEGDGLAERWEEWQKEEMFRQDFNYPTHHPAVSGWIIGDSTSQIENEYPSGPR
In the case of B5, the binding [9] is reported as “no binding”.
